Primary screen of a compound library

By UniProt entry, the sequences of proteins in these tests, tags left out. Residues count along the entry.
UniProt Q8IDJ8, 1-583: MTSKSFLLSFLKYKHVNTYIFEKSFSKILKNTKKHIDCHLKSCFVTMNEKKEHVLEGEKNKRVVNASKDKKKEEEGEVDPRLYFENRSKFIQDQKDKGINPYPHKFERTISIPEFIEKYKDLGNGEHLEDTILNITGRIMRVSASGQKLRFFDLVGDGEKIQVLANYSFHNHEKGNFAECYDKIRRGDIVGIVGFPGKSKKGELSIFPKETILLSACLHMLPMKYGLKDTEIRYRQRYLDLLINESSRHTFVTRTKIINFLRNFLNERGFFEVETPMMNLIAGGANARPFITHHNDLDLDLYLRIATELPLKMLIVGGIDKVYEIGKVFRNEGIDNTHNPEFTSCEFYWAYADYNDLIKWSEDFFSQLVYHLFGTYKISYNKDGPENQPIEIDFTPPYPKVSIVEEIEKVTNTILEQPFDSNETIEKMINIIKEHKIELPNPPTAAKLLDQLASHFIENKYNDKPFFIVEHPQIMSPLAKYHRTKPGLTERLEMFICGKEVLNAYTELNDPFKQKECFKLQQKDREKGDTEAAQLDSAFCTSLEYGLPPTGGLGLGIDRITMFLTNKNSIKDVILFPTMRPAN
UniProt P9WNZ1, whole entry: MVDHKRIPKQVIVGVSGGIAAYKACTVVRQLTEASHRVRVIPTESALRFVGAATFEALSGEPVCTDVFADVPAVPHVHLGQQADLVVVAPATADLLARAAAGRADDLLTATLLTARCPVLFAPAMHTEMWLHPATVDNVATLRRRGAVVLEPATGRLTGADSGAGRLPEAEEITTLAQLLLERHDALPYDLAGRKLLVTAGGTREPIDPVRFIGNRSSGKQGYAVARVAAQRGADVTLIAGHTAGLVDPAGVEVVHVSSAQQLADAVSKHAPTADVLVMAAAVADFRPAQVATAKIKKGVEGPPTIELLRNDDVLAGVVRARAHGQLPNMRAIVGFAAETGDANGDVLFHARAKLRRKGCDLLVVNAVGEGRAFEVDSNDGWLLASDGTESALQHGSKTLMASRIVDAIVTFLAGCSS

Source: ChEMBL document CHEMBL3988442, “University of Dundee, Small-Polar-MMV Screening Library” (2021).

PfKRS1: 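Enzyme assay of the cytosolic lysyl-tRNA synthetase in 384-well plates, read by luminescence. Target: Lysine-tRNA ligase, Plasmodium falciparum 3D7 (UniProt Q8IDJ8). Concentration: 30 µM. Direction is inferred from only a few compounds that gave an IC50; most scored high, so higher reads as stronger inhibition. Of about 69,000 compounds tested this way, about 49 (0.071%) reached 50% or more in at least one test.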
Toxoplasma: 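Assay of Toxoplasma gondii numbers, read through their beta-galactosidase reporter with a colour substrate. Tested at 10 µM. The record gives no direction; the compounds picked for IC50 retests had high values, so higher reads as fewer parasites. Of about 67,000 compounds tested this way, about 260 (0.38%) reached 50% or more in at least one test.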
CoaBC: 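Enzyme assay of CoaBC with a phosphate dye (Biomol Green) read at 650 nm. Target: Coenzyme A biosynthesis protein CoaBC, Mycobacterium tuberculosis (UniProt P9WNZ1). Compounds at 30 µM. Direction is inferred from only a few compounds that gave an IC50; most scored high, so higher reads as stronger inhibition. Most strong results did not repeat in a second test. About 67,000 compounds were tested under these conditions; 0.06% (about 40) showed 50% or more at least once.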

Each number is a percent effect as filed. The record does not define 0% and 100%; most values in the screen are far below 50% and negative numbers occur (in some assays of this library far below -100). This is an unselected part of the compounds tested. Two or more numbers in one place are separate tests of the same structure; such repeats can differ widely. A dash means the value is not listed here; it may have been measured.

{"smiles": "O=C(O)C(F)(F)F.O=C(O)C(F)(F)F.c1nc(CN2CCC3(CC2)COCCN3CC2CC2)c[nH]1", "Toxoplasma": -0.1918}
{"smiles": "COc1nc(C)c(C(=O)NCc2cc(N3CCOCC3)ncn2)s1", "PfKRS1": 3.658, "Toxoplasma": -3.687, "CoaBC": -0.4808}
{"smiles": "c1cc(CN2Cc3nnn(CC4CC4)c3C(COCC3CC3)C2)co1", "stereo": "configuration not stated", "PfKRS1": 5.414, "CoaBC": 6.306}
{"smiles": "Nc1nc(NCCc2[nH]nc3c2CCCC3)cc(N2CCOCC2)n1", "PfKRS1": 9.677, "CoaBC": -0.615}
{"smiles": "O=C(O)C(F)(F)F.[H][C@@]12CN(C(=O)C3CC3)C[C@]1([H])OCCN2CC(=O)NC", "Toxoplasma": -5.38}
{"smiles": "Cc1nn(C)cc1NC(=O)CN1CCN(C2CCCC2)C(=O)C1", "PfKRS1": 2.06, "Toxoplasma": 12.7, "CoaBC": -5.811}
{"smiles": "N#Cc1ccc(SCCC(=O)Nc2ccc(CC(N)=O)cc2)cc1", "PfKRS1": 6.375, "Toxoplasma": 4.679, "CoaBC": 6.994}
{"smiles": "CN(CCCOc1ccccc1)C(=O)CN1CCc2cncnc2C1", "PfKRS1": 0.8857, "Toxoplasma": -0.1883, "CoaBC": 12.52}
{"smiles": "CC1CN(C(=O)c2sccc2Br)CCO1", "stereo": "configuration not stated", "PfKRS1": 1.963, "Toxoplasma": -0.4823, "CoaBC": 5.556}
{"smiles": "[H][C@@]12CCN(Cc3c(C)noc3C)C[C@@]1([H])O[C@H](c1ccncn1)C2", "Toxoplasma": 3.712}
{"smiles": "O=C(O)C(F)(F)F.[H][C@@]12CCN(CC(C)C)[C@@]1([H])CCN2S(=O)(=O)c1cn(C)cn1", "Toxoplasma": -4.115}
{"smiles": "Cc1nc(Nc2nncs2)cc(C2CNC2)n1", "PfKRS1": -0.1565, "CoaBC": 4.468}
{"smiles": "CC(NCCCN1CCCC1=O)c1cc(Br)ccc1F", "stereo": "configuration not stated", "PfKRS1": 1.555, "Toxoplasma": 12.16, "CoaBC": "25.06 and 7.732"}
{"smiles": "Cc1[nH]c(=O)[nH]c(=O)c1CN1CCCC(CCc2ccc(F)c(F)c2)C1", "stereo": "configuration not stated", "PfKRS1": 3.393, "Toxoplasma": -0.05797, "CoaBC": 2.575}
{"smiles": "Cc1ccc(CN2CCC3(CCC3NC(=O)c3ccn(C)c3)CC2)s1.O=C(O)C(F)(F)F", "stereo": "configuration not stated", "Toxoplasma": -24.73}
{"smiles": "[H][C@]12CC[C@@]3(N=C(C)N(CC(C)C)C3=O)[C@@]1([H])CN(S(=O)(=O)CC)C2", "Toxoplasma": -5.695}
{"smiles": "OC1(CN2CCC(Cc3ccccc3)CC2)CCC1", "PfKRS1": 0.6893, "Toxoplasma": 1.51}
{"smiles": "CCCn1nnnc1CSc1nccn1Cc1ccccn1", "PfKRS1": 1.117, "Toxoplasma": -7.956, "CoaBC": 0.4808}
{"smiles": "COC(=O)c1ccc(N2CCN(CC(=O)NC(N)=O)C(C)C2)cc1", "stereo": "configuration not stated", "PfKRS1": 0.6145, "Toxoplasma": -5.187, "CoaBC": 2.937}
{"smiles": "CCNC(=O)N1CCC(NC(=O)NCCc2ccc(C)cc2C)C1", "stereo": "configuration not stated", "PfKRS1": 4.568, "Toxoplasma": 1.736, "CoaBC": 1.985}
{"smiles": "CC(C)Cc1noc(CN2CCC(C(=O)NCC3CCCO3)CC2)n1", "stereo": "configuration not stated", "PfKRS1": 0, "Toxoplasma": 10.93, "CoaBC": 2.644}
{"smiles": "Cc1cc(C(=O)N2CCc3nc(C4CCCN4)ncc3C2)cs1.Cl", "stereo": "configuration not stated", "Toxoplasma": -12.13}
{"smiles": "O=S(=O)(NCCNc1ccc(-n2cccn2)nn1)c1ccccc1", "PfKRS1": -0.8478, "Toxoplasma": -7.448, "CoaBC": -10.28}

For reference, 2 entries once more:

| SMILES | PfKRS1 | Toxoplasma | CoaBC |
|---|---|---|---|
| `Nc1nc(NCCc2[nH]nc3c2CCCC3)cc(N2CCOCC2)n1` | 9.677% | - | -0.615% |
| `COC(=O)c1ccc(N2CCN(CC(=O)NC(N)=O)C(C)C2)cc1` (configuration not stated) | 0.6145% | -5.187% | 2.937% |